Measurements reported in PubChem BioAssay AID652272 (Drosophila RNAi Screening Center, 2013).

Test: 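Genome-wide knock-down search for components of Hedgehog signalling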 (primary screen)
Cells: Drosophila clone 8 (Cl8) cells
Reagent: long dsRNA against Drosophila genes
Measured: 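Plate reader light from a firefly reporter under a ptc promoter fragment that responds to Hedgehog, with Renilla light as transfection reference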
Direction: firefly Hh reporter signal: higher = more ptc reporter light; Renilla reference signal: higher = more Renilla control light
Call rule: 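Hit when the z-score averaged over two replicates is under -2 or over +3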
Calls: active = hit: reporter lowered or raised; inactive = not a hit
The deposit covers about 21,000 reagents; shown is an unselected part of those that have a named target and a result. In the full data, 503 (2.4%) were called active. 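Raw plate light values, not normalised; calls rest on replicate z-scores that were not deposited; hits include reporter decreases as well as increases.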 A plus sign joins genes that one reagent is predicted to hit. Not given: the amount of reagent, the time to read-out.

no.	gene knocked down	dsRNA	firefly Hh reporter signal, replicate 1	firefly Hh reporter signal, replicate 2	firefly Hh reporter signal, replicate 3	Renilla reference signal, replicate 1	Renilla reference signal, replicate 2	activity call
1	trol	DRSC17714	5.61e5	2.32e5		28688	4976	inactive
2	trol	DRSC17718	4.77e5	2.69e5		20595	5978	inactive
3	trol	DRSC18613	85508	1.60e5		3312	5879	inactive
4	trol	DRSC18814	80441	1.98e5		2816	7076	inactive
5	MCPH1	DRSC06309	95076	68592		4320	3115	inactive
6	MCPH1	DRSC07308	80851	41104		2057	3256	inactive
7	Pde1c	DRSC02421	1.14e5	60499		2532	4212	inactive
8	Pde1c	DRSC02422	96448	44276		2018	3188	inactive
9	Pde1c	DRSC02423	1.01e5	41091		2281	3648	inactive
10	Pde1c	DRSC02424	1.17e5	57008		2040	5656	inactive
11	Pde1c	DRSC02425	96470	72555		2412	5623	inactive
12	Pde1c	DRSC02426	1.33e5	55360		3330	4851	inactive
13	LeuRS-m	DRSC08595	1.06e5	62978		4192	2882	inactive
14	mRpS18C	DRSC16538	68304	83623		1648	2408	inactive
15	Pbgs	DRSC09718	31927	44548	51360	4204	3265	inactive
16	RpL21	DRSC03704	28896	22137		1125	3943	active
17	CG32026	DRSC08950	1.24e5	2.13e5		3538	8356	inactive
18	CG5569	DRSC04514	70740	43497		1496	3996	inactive
19	SerRS-m	DRSC14096	66646	76796		1564	1773	inactive
20	Cyp313a4	DRSC16627	72964	1.06e5		2105	2710	inactive
21	CG32846	DRSC08012	77670	1.56e5		2343	6442	inactive
22	CG33252	DRSC19162	8.29e5	2.46e5		47024	6327	inactive
23	CG6136	DRSC15975	1.50e5	90189		5652	1728	inactive
24	Vps37B	DRSC12165	1.47e5	67467		5248	2576	inactive
25	adp	DRSC06916	1.29e5	1.02e5		5859	4662	inactive
26	CG1421	DRSC03707	87973	45125		2048	4224	inactive
27	CG34112	DRSC12235	89283	95889		3216	5794	inactive
28	CG8405	DRSC05599	1.10e5	1.78e5		3427	8875	inactive
29	CG8405	DRSC07166	82038	71330		1371	4779	inactive
30	Sod3	DRSC07324	1.04e5	77587		4717	3285	inactive
31	CG11885	DRSC00329	5.63e5	68808		2908	2908	inactive
32	Ser12	DRSC00786	1.01e5	78684		2182	1560	inactive
33	Mlc-c	DRSC18683	72976	62876		1885	1866	inactive
34	Pif1A + Pif1B	DRSC14142	1.13e5	1.55e5		4416	3915	inactive
35	Pif1A + Pif1B	DRSC14380	1.59e5	77542		5949	3079	inactive
36	Pif1A + Pif1B	DRSC14381	1.69e5	2.15e5		6296	5820	inactive
37	Tmem63	DRSC06063	76394	47560		1649	4284	inactive
38	CG15160	DRSC02461	92642	71088		1945	7185	inactive
39	CG8209	DRSC10970	54103	91124		5147	6512	inactive

Records listed so far whose target name begins with P or p (10):
gene knocked down	dsRNA	firefly Hh reporter signal, replicate 1	firefly Hh reporter signal, replicate 2	firefly Hh reporter signal, replicate 3	Renilla reference signal, replicate 1	Renilla reference signal, replicate 2	activity call
Pde1c	DRSC02421	1.14e5	60499		2532	4212	inactive
Pde1c	DRSC02422	96448	44276		2018	3188	inactive
Pde1c	DRSC02423	1.01e5	41091		2281	3648	inactive
Pde1c	DRSC02424	1.17e5	57008		2040	5656	inactive
Pde1c	DRSC02425	96470	72555		2412	5623	inactive
Pde1c	DRSC02426	1.33e5	55360		3330	4851	inactive
Pbgs	DRSC09718	31927	44548	51360	4204	3265	inactive
Pif1A + Pif1B	DRSC14142	1.13e5	1.55e5		4416	3915	inactive
Pif1A + Pif1B	DRSC14380	1.59e5	77542		5949	3079	inactive
Pif1A + Pif1B	DRSC14381	1.69e5	2.15e5		6296	5820	inactive
